In paper doi:10.1101/2019.12.20.884809:
Results are given in words; binding and its absence hold for the method and conditions named. Binding seen in cells or lysates may run through a third protein. A yes stands for co-enrichment or nearness to the bait. Other partners may have been found.

Chains of the proteins cited; added tags and fusions are not shown.
UniProt Q99497: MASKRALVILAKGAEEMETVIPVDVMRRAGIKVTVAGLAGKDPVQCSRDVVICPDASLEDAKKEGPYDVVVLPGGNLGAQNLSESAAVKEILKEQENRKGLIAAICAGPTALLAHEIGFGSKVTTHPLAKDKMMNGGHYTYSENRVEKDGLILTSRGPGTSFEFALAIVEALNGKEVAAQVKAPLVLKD

B1: KHSRP (protein, UniProt Q92945 1-711)
chain: MSDYSTGGPPPGPPPPAGGGGGAGGAGGGPPPGPPGAGDRGGGGPGGGGPGGGSAGGPSQPPGGGGPGIRKDAFADAVQRARQIAAKIGGDAATTVNNSTPDFGFGGQKRQLEDGDQPESKKLASQGDSISSQLGPIHPPPRTSMTEEYRVPDGMVGLIIGRGGEQINKIQQDSGCKVQISPDSGGLPERSVSLTGAPESVQKAKMMLDDIVSRGRGGPPGQFHDNANGGQNGTVQEIMIPAGKAGLVIGKGGETIKQLQERAGVKMILIQDGSQNTNVDKPLRIIGDPYKVQQACEMVMDILRERDQGGFGDRNEYGSRIGGGIDVPVPRHSVGVVIGRSGEMIKKIQNDAGVRIQFKQDDGTGPEKIAHIMGPPDRCEHAARIINDLLQSLRSGPPGPPGGPGMPPGGRGRGRGQGNWGPPGGEMTFSIPTHKCGLVIGRGGENVKAINQQTGAFVEISRQLPPNGDPNFKLFIIRGSPQQIDHAKQLIEEKIEGPLCPVGPGPGGPGPAGPMGPFNPGPFNQGPPGAPPHAGGPPPHQYPPQGWGNTYPQWQPPAPHDPSKAAAAAADPNAAWAAYYSHYYQQPPGPVPGPAPAPAAPPAQGEPPQPPPTGQSDYTKAWEEYYKKIGQQPQQPGAPPQQDYTKAWEEYYKKQAQVATGGGPGAPPGSQPDYSAAWAEYYRQQAAYYGQTPGPGGPQPPPTQQGQQQAQ
B2: SART1 (protein, UniProt O43290 1-800)
chain: MGSSKKHRGEKEAAGTTAAAGTGGATEQPPRHREHKKHKHRSGGSGGSGGERRKRSRERGGERGSGRRGAEAEARSSTHGRERSQAEPSERRVKREKRDDGYEAAASSKTSSGDASSLSIEETNKLRAKLGLKPLEVNAIKKEAGTKEEPVTADVINPMALRQREELREKLAAAKEKRLLNQKLGKIKTLGEDDPWLDDTAAWIERSRQLQKEKDLAEKRAKLLEEMDQEFGVSTLVEEEFGQRRQDLYSARDLQGLTVEHAIDSFREGETMILTLKDKGVLQEEEDVLVNVNLVDKERAEKNVELRKKKPDYLPYAEDESVDDLAQQKPRSILSKYDEELEGERPHSFRLEQGGTADGLRERELEEIRAKLRLQAQSLSTVGPRLASEYLTPEEMVTFKKTKRRVKKIRKKEKEVVVRADDLLPLGDQTQDGDFGSRLRGRGRRRVSEVEEEKEPVPQPLPSDDTRVENMDISDEEEGGAPPPGSPQVLEEDEAELELQKQLEKGRRLRQLQQLQQLRDSGEKVVEIVKKLESRQRGWEEDEDPERKGAIVFNATSEFCRTLGEIPTYGLAGNREEQEELMDFERDEERSANGGSESDGEENIGWSTVNLDEEKQQQDFSASSTTILDEEPIVNRGLAAALLLCQNKGLLETTVQKVARVKAPNKSLPSAVYCIEDKMAIDDKYSRREEYRGFTQDFKEKDGYKPDVKIEYVDETGRKLTPKEAFRQLSHRFHGKGSGKMKTERRMKKLDEEALLKKMSSSDTPLGTVALLQEKQKAQKTPYIVLSGSGKSMNANTITK
B3: pyruvate dehydrogenase (lipoamide) beta (protein, UniProt P11177 31-359)
chain: LQVTVRDAINQGMDEELERDEKVFLLGEEVAQYDGAYKVSRGLWKKYGDKRIIDTPISEMGFAGIAVGAAMAGLRPICEFMTFNFSMQAIDQVINSAAKTYYMSGGLQPVPIVFRGPNGASAGVAAQHSQCFAAWYGHCPGLKVVSPWNSEDAKGLIKSAIRDNNPVVVLENELMYGVPFEFPPEAQSKDFLIPIGKAKIERQGTHITVVSHSRPVGHCLEAAAVLSKEGVECEVINMRTIRPMDMETIEASVMKTNHLVTVEGGWPQFGVGAEICARIMEGPAFNFLDAPAVRVTGADVPMPYAKILEDNSIPQVKDIIFAIKKTLNI
B4: HNRNPH3 (protein, UniProt P31942 1-346)
chain: MDWVMKHNGPNDASDGTVRLRGLPFGCSKEEIVQFFQGLEIVPNGITLTMDYQGRSTGEAFVQFASKEIAENALGKHKERIGHRYIEIFRSSRSEIKGFYDPPRRLLGQRPGPYDRPIGGRGGYYGAGRGSMYDRMRRGGDGYDGGYGGFDDYGGYNNYGYGNDGFDDRMRDGRGMGGHGYGGAGDASSGFHGGHFVHMRGLPFRATENDIANFFSPLNPIRVHIDIGADGRATGEADVEFVTHEDAVAAMSKDKNNMQHRYIELFLNSTPGGGSGMGGSGMGGYGRDGMDNQGGYGSVGRMGMGNNYSGGYGTPDGLGGYGRGGGGSGGYYGQGGMSGGGWRGMY

Target: PARK7/DJ-1 (human (endogenous in primary Tregs/Teffs)) (UniProt Q99497)
Test: affinity purification with mass spectrometry

binding, binds:
B1
B2
B3
B4
